# According to the supplement of paper PMC8728848:
# This is one part of the list.
# How the values were obtained:
# Assay in all cases: glycan array binding signal (z-score within array); higher = stronger binding
# Conditions in all cases: glycan notation: IUPAC condensed, linker removed
# [1] = target: Man(a1-2)Man(a1-3)[Man(a1-2)Man(a1-6)]Man
# In short: (§1)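 The Consortium for Functional Glycomics database supplied 3228 glycan arrays, of which those lacking an available protein sequence were dropped. The binding signal, a within-array Z-score, was averaged across arrays of the same protein sequence and across linkers. Negative scores can be read as non-binding.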
# [2] = target: Man(a1-2)Man(a1-3)[Man(a1-2)Man(a1-6)]Man(a1-6)[Man(a1-2)Man(a1-2)Man(a1-3)]Man
# In short: as §1
# [3] = target: Man(a1-2)Man(a1-3)[Man(a1-2)Man(a1-6)]Man(a1-6)[Man(a1-2)Man(a1-2)Man(a1-3)]Man(b1-4)GlcNAc(b1-4)GlcNAc
# In short: as §1
# [4] = target: Man(a1-2)Man(a1-3)[Man(a1-6)]Man(a1-6)[Man(a1-2)Man(a1-3)]Man(b1-4)GlcNAc(b1-4)GlcNAc
# In short: as §1
# [5] = target: Man(a1-2)Man(a1-6)[Man(a1-3)]Man(a1-6)[Man(a1-2)Man(a1-2)Man(a1-3)]Man
# In short: as §1
# [6] = target: Man(a1-2)Man(a1-6)[Man(a1-3)]Man(a1-6)[Man(a1-2)Man(a1-2)Man(a1-3)]Man(b1-4)GlcNAc(b1-4)GlcNAc
# In short: as §1
# [7] = target: Man(a1-3)[Man(a1-6)]Man
# In short: as §1
# [8] = target: Man(a1-3)[Man(a1-6)]Man(a1-6)[Man(a1-2)Man(a1-3)]Man(b1-4)GlcNAc(b1-4)GlcNAc
# In short: as §1
# [9] = target: Man(a1-3)[Man(a1-6)]Man(a1-6)[Man(a1-3)]Man
# In short: as §1
# [10] = target: Man(a1-3)[Man(a1-6)]Man(a1-6)[Man(a1-3)]Man(b1-4)GlcNAc(b1-4)GlcNAc
# In short: as §1
# [11] = target: Man(a1-3)[Man(a1-6)]Man(b1-4)GlcNAc(b1-4)GlcNAc
# In short: as §1
# [12] = target: Man(a1-3)[Man(a1-6)]Man(b1-4)GlcNAc(b1-4)[Fuc(a1-6)]GlcNAc
# In short: as §1
# [13] = target: Man(a1-6)Man
# In short: as §1
# [14] = target: Man(b1-4)GlcNAc
# In short: as §1
# [15] = target: MurNAc(b1-4)GlcNAc
# In short: as §1
# [16] = target: Neu5Ac(a2-3)Gal
# In short: as §1
# [17] = target: Neu5Ac(a2-3)Gal(b1-3)GalNAc
# In short: as §1
# [18] = target: Neu5Ac(a2-3)Gal(b1-3)GalNAc(b1-3)Gal(a1-4)Gal(b1-4)Glc
# In short: as §1
# [19] = target: Neu5Ac(a2-3)Gal(b1-3)GalNAc(b1-4)Gal(b1-4)Glc
# In short: as §1
# [20] = target: Neu5Ac(a2-3)Gal(b1-3)GalNAc(b1-4)[Neu5Ac(a2-3)]Gal(b1-4)Glc
# In short: as §1
# [21] = target: Neu5Ac(a2-3)Gal(b1-3)GalNAc(b1-4)[Neu5Ac(a2-8)Neu5Ac(a2-3)]Gal(b1-4)Glc
# In short: as §1
# [22] = target: Neu5Ac(a2-3)Gal(b1-3)GalNAc6S
# In short: as §1
# [23] = target: Neu5Ac(a2-3)Gal(b1-3)GlcNAc
# In short: as §1
# [24] = target: Neu5Ac(a2-3)Gal(b1-3)GlcNAc(b1-2)Man
# In short: as §1
# [25] = target: Neu5Ac(a2-3)Gal(b1-3)GlcNAc(b1-2)Man(a1-3)[GlcNAc(b1-4)][Neu5Ac(a2-3)Gal(b1-3)GlcNAc(b1-2)Man(a1-6)]Man(b1-4)GlcNAc(b1-4)GlcNAc
# In short: as §1
# [26] = target: Neu5Ac(a2-3)Gal(b1-3)GlcNAc(b1-2)Man(a1-3)[Neu5Ac(a2-3)Gal(b1-3)GlcNAc(b1-2)Man(a1-6)]Man(b1-4)GlcNAc(b1-4)GlcNAc
# In short: as §1
# [27] = target: Neu5Ac(a2-3)Gal(b1-3)GlcNAc(b1-2)[Neu5Ac(a2-3)Gal(b1-3)GlcNAc(b1-4)]Man(a1-6)[Neu5Ac(a2-3)Gal(b1-3)GlcNAc(b1-2)Man(a1-3)]Man(b1-4)GlcNAc(b1-4)GlcNAc
# In short: as §1
# [28] = target: Neu5Ac(a2-3)Gal(b1-3)GlcNAc(b1-3)Gal(b1-3)GlcNAc
# In short: as §1
# [29] = target: Neu5Ac(a2-3)Gal(b1-3)GlcNAc(b1-3)Gal(b1-4)GlcNAc
# In short: as §1
# [30] = target: Neu5Ac(a2-3)Gal(b1-3)GlcNAc(b1-3)GalNAc
# In short: as §1
# [31] = target: Neu5Ac(a2-3)Gal(b1-3)GlcNAc(b1-6)GalNAc
# In short: as §1
# [32] = target: Neu5Ac(a2-3)Gal(b1-3)GlcNAc6S
# In short: as §1
# [33] = target: Neu5Ac(a2-3)Gal(b1-3)[Fuc(a1-4)]GlcNAc
# In short: as §1
# [34] = target: Neu5Ac(a2-3)Gal(b1-3)[Fuc(a1-4)]GlcNAc(b1-3)Gal(b1-3)[Fuc(a1-4)]GlcNAc
# In short: as §1
# [35] = target: Neu5Ac(a2-3)Gal(b1-3)[Fuc(a1-4)]GlcNAc(b1-3)Gal(b1-4)[Fuc(a1-3)]GlcNAc
# In short: as §1
# [36] = target: Neu5Ac(a2-3)Gal(b1-3)[GlcNAc(b1-6)]GalNAc
# In short: as §1
# [37] = target: Neu5Ac(a2-3)Gal(b1-3)[Neu5Ac(a2-6)]GalNAc
# In short: as §1
# [38] = target: Neu5Ac(a2-3)Gal(b1-3)[Neu5Ac(a2-6)]GlcNAc(b1-3)[Fuc(a1-3)[Gal(b1-4)]GlcNAc(b1-6)]Gal(b1-4)Glc
# In short: as §1
# [39] = target: Neu5Ac(a2-3)Gal(b1-3)]Neu5Ac(a2-3)Gal(b1-4)]GlcNAc
# In short: as §1
# [40] = target: Neu5Ac(a2-3)Gal(b1-4)Glc
# In short: as §1
# [41] = target: Neu5Ac(a2-3)Gal(b1-4)GlcNAc
# In short: as §1
# [42] = target: Neu5Ac(a2-3)Gal(b1-4)GlcNAc(b1-2)Man
# In short: as §1
# [43] = target: Neu5Ac(a2-3)Gal(b1-4)GlcNAc(b1-2)Man(a1-3)[GlcNAc(b1-4)][Neu5Ac(a2-3)Gal(b1-4)GlcNAc(b1-2)Man(a1-6)]Man(b1-4)GlcNAc(b1-4)GlcNAc
# In short: as §1
# [44] = target: Neu5Ac(a2-3)Gal(b1-4)GlcNAc(b1-2)Man(a1-3)[Neu5Ac(a2-3)Gal(b1-4)GlcNAc(b1-2)Man(a1-6)]Man(b1-4)GlcNAc(b1-4)GlcNAc
# In short: as §1
# [45] = target: Neu5Ac(a2-3)Gal(b1-4)GlcNAc(b1-2)Man(a1-3)[Neu5Ac(a2-3)Gal(b1-4)GlcNAc(b1-2)Man(a1-6)]Man(b1-4)GlcNAc(b1-4)[Fuc(a1-6)]GlcNAc
# In short: as §1
binder,measurement,setting,value
"AFL6 (Aspergillus fumigatus), Q4WKJ1 (protein) MSFHLTAEDIRIEDGHRLVARLRNADGDLQDASIDLNTCLGNDNGHFQWDGVDFSHSAQDVHFAIEGGGQVPVLRAQLANQDGEFQDADVNLSERIENINGEFVFH",glycan array binding signal (z-score),[1],-0.608
same,glycan array binding signal (z-score),[2],-0.103
same,glycan array binding signal (z-score),[3],-0.201
same,glycan array binding signal (z-score),[4],-0.17
same,glycan array binding signal (z-score),[5],-0.466
same,glycan array binding signal (z-score),[6],-0.587
same,glycan array binding signal (z-score),[7],-0.731
same,glycan array binding signal (z-score),[8],-0.033
same,glycan array binding signal (z-score),[9],0.138
same,glycan array binding signal (z-score),[10],-0.308
same,glycan array binding signal (z-score),[11],-0.448
same,glycan array binding signal (z-score),[12],-0.578
same,glycan array binding signal (z-score),[13],0.29
same,glycan array binding signal (z-score),[14],-0.133
same,glycan array binding signal (z-score),[15],-0.584
same,glycan array binding signal (z-score),[16],0.049
same,glycan array binding signal (z-score),[17],-0.419
same,glycan array binding signal (z-score),[18],0.377
same,glycan array binding signal (z-score),[19],-0.31
same,glycan array binding signal (z-score),[20],-0.312
same,glycan array binding signal (z-score),[21],-0.576
same,glycan array binding signal (z-score),[22],0.167
same,glycan array binding signal (z-score),[23],-0.342
same,glycan array binding signal (z-score),[24],-0.44
same,glycan array binding signal (z-score),[25],-0.296
same,glycan array binding signal (z-score),[26],-0.157
same,glycan array binding signal (z-score),[27],-0.133
same,glycan array binding signal (z-score),[28],-0.446
same,glycan array binding signal (z-score),[29],-0.831
same,glycan array binding signal (z-score),[30],0.844
same,glycan array binding signal (z-score),[31],-0.309
same,glycan array binding signal (z-score),[32],-0.697
same,glycan array binding signal (z-score),[33],0.861
same,glycan array binding signal (z-score),[34],-0.019
same,glycan array binding signal (z-score),[35],0.468
same,glycan array binding signal (z-score),[36],-0.145
same,glycan array binding signal (z-score),[37],-0.258
same,glycan array binding signal (z-score),[38],0.794
same,glycan array binding signal (z-score),[39],-0.495
same,glycan array binding signal (z-score),[40],-0.315
same,glycan array binding signal (z-score),[41],-0.297
same,glycan array binding signal (z-score),[42],0.634
same,glycan array binding signal (z-score),[43],-0.535
same,glycan array binding signal (z-score),[44],0.029
same,glycan array binding signal (z-score),[45],0.094

# 3 entries from above, reformatted:
binder | measurement | setting | value
AFL6 (Aspergillus fumigatus), Q4WKJ1 (protein) MSFHLTAEDIRIEDGHRLVARLRNADGDLQDASIDLNTCLGNDNGHFQWDGVDFSHSAQDVHFAIEGGGQVPVLRAQLANQDGEFQDADVNLSERIENINGEFVFH | glycan array binding signal (z-score) | [9] | 0.138
same | glycan array binding signal (z-score) | [10] | -0.308
same | glycan array binding signal (z-score) | [11] | -0.448
